Entries after “also recorded” stand apart in the source; their conditions may differ. Part of at least one peptide drawing is inferred or uncertain, most often the ends. Peptide text beside a SMILES is read from it. * marks the point of attachment. X1 = CN1/C(=C/C=C/C=C/C2=[N+](CCCCCC(=O)*)c3ccc4ccccc4c3C2(C)C)C(C)(C)c2c1ccc1ccccc21
Tests used:
cMet [1] = target: T1, cMet (Homo sapiens, UniProt P08581); experiment: Confocal microscopy of binding to HT29 (cMet+) versus SW480 (cMet−) cells; assay type: cell-based
Protocol: HT29, SW480, S114 and NIH3T3 cells were inoculated in 12-well cell culture plates with circle glass coverslips to about 80% confluence. The cells were blocked with 1×PBS plus 2% BSA for 1 hour at 4° C., then were incubated with 5 μM peptides for 10 min at RT in the dark, washed thrice, and fixed with 4% PFA for 5 min, washed with 1×PBS, then mounted on glass slides with ProLong Gold reagent containing DAPI (Invitrogen, Waltham, MA). As positive control, after blocking with 2% BSA for 1 hour at 4° C., A 1:3000 dilution of primary monoclonal rabbit anti-cMet antibody (Cell Signaling Technology, #8198) was incubated with cells overnight at 4° C. Afterward, the cells were washed thrice with 1×PBS and further incubated with a 1:500 dilution of AF488-labeled secondary goat ant-rabbit immunoglobulin G antibody (Life Technologies, #A-11029) for 1 hour at RT, washed thrice, and then mounted on glass slides with ProLong Gold reagent containing DAPI. Confocal fluorescence images were collected using a 63× oil-immersion objective (Leica SP5 Inverted 2-Photon FLIM Confocal). Fluorescence intensities from five cells in two independent images were quantified using custom Matlab (Mathworks) software.

Chains of the proteins cited; added tags and fusions are not shown. Residues count along the entry.
UniProt P08581, 25-1390: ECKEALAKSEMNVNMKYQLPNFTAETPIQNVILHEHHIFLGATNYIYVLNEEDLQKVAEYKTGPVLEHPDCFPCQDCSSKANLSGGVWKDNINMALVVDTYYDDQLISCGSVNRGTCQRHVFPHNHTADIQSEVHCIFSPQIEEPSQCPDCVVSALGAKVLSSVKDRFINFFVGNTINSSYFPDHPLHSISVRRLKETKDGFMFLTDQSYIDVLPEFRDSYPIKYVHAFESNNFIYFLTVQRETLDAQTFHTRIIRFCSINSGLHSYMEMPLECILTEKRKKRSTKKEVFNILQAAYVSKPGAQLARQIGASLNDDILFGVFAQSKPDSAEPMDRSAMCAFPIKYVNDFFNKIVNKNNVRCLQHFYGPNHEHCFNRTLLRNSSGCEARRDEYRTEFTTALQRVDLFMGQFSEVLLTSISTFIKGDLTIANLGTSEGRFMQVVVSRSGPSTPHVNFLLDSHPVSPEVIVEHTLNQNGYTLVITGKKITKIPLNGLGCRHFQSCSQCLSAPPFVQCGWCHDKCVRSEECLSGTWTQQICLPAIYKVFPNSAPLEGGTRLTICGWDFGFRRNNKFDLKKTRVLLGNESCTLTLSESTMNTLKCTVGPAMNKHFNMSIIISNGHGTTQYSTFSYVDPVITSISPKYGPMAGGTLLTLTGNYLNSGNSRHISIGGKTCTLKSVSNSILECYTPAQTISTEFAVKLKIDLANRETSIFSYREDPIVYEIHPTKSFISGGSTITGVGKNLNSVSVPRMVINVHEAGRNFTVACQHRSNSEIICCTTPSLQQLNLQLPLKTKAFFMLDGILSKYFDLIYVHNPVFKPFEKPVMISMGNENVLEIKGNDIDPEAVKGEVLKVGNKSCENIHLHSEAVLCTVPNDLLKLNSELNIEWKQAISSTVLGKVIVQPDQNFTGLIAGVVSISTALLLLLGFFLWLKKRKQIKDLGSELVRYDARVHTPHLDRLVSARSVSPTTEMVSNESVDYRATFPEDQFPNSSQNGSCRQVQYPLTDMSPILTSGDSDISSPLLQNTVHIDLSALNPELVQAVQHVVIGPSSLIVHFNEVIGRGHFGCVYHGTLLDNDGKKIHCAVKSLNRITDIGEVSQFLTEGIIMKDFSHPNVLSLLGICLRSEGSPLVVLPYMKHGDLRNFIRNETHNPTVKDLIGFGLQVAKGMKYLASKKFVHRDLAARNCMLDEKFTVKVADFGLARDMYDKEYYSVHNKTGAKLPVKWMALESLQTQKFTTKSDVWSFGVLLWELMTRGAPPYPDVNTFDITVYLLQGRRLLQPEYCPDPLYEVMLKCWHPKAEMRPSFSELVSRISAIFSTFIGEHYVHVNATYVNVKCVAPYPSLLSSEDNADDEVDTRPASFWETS
UniProt P16056, 25-931 limits assumed: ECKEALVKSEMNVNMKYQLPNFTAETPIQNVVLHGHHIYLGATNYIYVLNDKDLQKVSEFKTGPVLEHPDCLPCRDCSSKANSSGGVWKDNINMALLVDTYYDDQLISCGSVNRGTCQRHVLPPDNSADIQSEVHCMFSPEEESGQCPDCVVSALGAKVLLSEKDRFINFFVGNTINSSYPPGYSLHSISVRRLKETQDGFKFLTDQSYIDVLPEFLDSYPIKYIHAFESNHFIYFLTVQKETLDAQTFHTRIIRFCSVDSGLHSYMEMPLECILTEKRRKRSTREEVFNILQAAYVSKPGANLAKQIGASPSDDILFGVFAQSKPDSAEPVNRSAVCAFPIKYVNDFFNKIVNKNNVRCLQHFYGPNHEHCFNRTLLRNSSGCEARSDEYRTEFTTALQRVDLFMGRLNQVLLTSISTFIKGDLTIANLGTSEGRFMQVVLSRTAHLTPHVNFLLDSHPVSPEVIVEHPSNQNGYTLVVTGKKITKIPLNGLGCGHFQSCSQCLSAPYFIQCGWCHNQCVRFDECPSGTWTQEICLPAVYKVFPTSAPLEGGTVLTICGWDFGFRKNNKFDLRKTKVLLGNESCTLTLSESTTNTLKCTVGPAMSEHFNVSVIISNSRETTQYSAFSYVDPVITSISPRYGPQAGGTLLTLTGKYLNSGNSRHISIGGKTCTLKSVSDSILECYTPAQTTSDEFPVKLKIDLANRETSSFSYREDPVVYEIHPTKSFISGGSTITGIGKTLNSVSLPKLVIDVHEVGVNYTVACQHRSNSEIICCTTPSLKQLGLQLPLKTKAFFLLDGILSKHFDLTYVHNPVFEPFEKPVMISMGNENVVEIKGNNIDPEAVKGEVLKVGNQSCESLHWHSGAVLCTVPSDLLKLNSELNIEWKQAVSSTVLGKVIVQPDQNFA

mouse cMet-ECD = target: T2, mouse cMet-ECD (Mus musculus, UniProt P16056); experiment: Pull-down assay; assay type: binding; settings: peptide immobilized on EHS beads
T2 construct: incubated with purified mouse cMet-ECD protein (50622-M08H, Sino Biological); purchased Sino Biological 50622-M08H
Protocol: Interactions between peptide and mouse cMet were evaluated using a pull-down assay (Paul et al., Methods 54:387-395 (2011)). Peptides were immobilized on EHS active beads (17-0906-01, GE), and incubated with purified mouse cMet-ECD protein (50622-M08H, Sino Biological). After washing, bound proteins were detected by Western blot (FIG. 18).

HT29 cells = experiment: Alamar blue assay, HT29; assay type: cell-based, human; settings: 48 hours; HGF 25 ng/mL; peptide 5 or 100 μM
Protocol: An alamar blue assay was performed using HT29 and CCD841 cells. After culturing in serum free media overnight, about 3×10^3 cells were seeded per well in serum free media in 96 well plates at a final volume of 100 μL per well. […] Alamar blue reagent (10 μL) was added in amounts equal to 10% of the volume in the well, and incubated at 37° C. for 4 hours. Fluorescence with excitation at λex=530-560 nm, and emission at λex=590 nm, was measured.

cMet [2] = target: T1, cMet; experiment: Co-localization of peptide and anti-cMet antibody on HT29 cells; assay type: cell-based; settings: surface of HT29 cells
[3] = test system: flat and polyploid colonic adenomas; experiment: In vivo endoscopic imaging in CPC;Apc mice; settings: CPC;Apc mouse; topical / intra-rectal, 100 μM, 5 min incubation
Protocol: A CPC;Apc mouse model that can develop spontaneous adenomas in distal colon epithelium^44 was also used. Under the control of the Cdx2 promoter (CDX2P-9.5NLS-Cre), Cre recombinase can sporadically delete the adenomatous polyposis coli (APC) allele, resulting in polyploid colonic adenomas or flat lesions. We collected images from mice (n=8) that ranged in age from 7 to 10 months.
In vivo imaging was performed with approval of the University of Michigan Committee on the Use and Care of Animals. CPC;Apc mice were used for in vivo imaging. […]
A rigid small animal endoscope (Karl Sorz Veterinary Endoscopy) was inserted into the rectum (Liu et al., Gut 62:395-403 (2013)) and used to image the distal colon^45. […] The distance between the endoscope tip and the anus, and the clockwise location of polyps, were recorded. […] A ratio of the fluorescence and reflectance images was determined to correct for differences in distance and geometry over the image field-of-view (FOV) (Joshi et al., Endoscopy 48:A1-A13 (2016)). […]
The mean fluorescence intensity was used to calculate the target-to-background (T/B) ratios. Images were processed and analyzed using custom software in Matlab (Mathworks) (Joshi et al., Gastroenterology 152:1002-1013 e1009 (2017)). Matlab software was used to quantify the fluorescence intensity. […]

[4] = test system: human colon organoids (adenoma, SSA, normal); experiment: In vivo endoscopic imaging of patient-derived colon organoids implanted in NOD/SCID mice
Protocol: Acute colitis was induced in 8-week-old NOD.Cg-Prkdcscid Il2rgtm1Wjl/SzJ mice (005557, The Jackson Laboratory)^40,41 by feeding them with 3.0% DSS (molecular weight 40,000; Cat #AAJ6360622; Alfa Aesar) dissolved in drinking water for 5 days (d). At 6 d, the donor organoids were released from the type I collagen gel, dissociated by EDTA, and washed with BSA-containing PBS as with the passage procedure. Approximately 2.5-5E5 cell aggregates in 200 μL were transplanted per mouse as previously described^42,43. Organoids were instilled into colonic lumen as a suspension by using a syringe and a thin flexible catheter 4 cm in length and 2 mm in diameter. The anal verge was glued for 6 hours after infusion to prevent luminal contents from being excreted immediately, then glue were removed by Ethanol. Mice were maintained as usual after the transplantation. The mice were housed in pathogen-free conditions and supplied water ad libitum under controlled conditions of humidity (50±10%), light (12/12 hour light/dark cycle) and temperature (25° C.). Anesthesia was induced and maintained via a nose cone with inhaled isoflurane mixed with oxygen at a concentration of 2-4% at a flow rate of about 0.5 L/min. Organoid imaging was performed 3 weeks after transplantation.
A rigid small animal endoscope (Karl Sorz Veterinary Endoscopy) was inserted into the rectum (Liu et al., Gut 62:395-403 (2013)) and used to image the distal colon^45. Mucus and debris in the distal colon were removed by vigorously rinsing with warm tap water 3×. White-light illumination was applied first to identify the presence of adenomas. The distance between the endoscope tip and the anus, and the clockwise location of polyps, were recorded. QQT*-Cy5.5 solution (100 μM, 1.5 mL) was topically delivered into the distal colon through the instrument channel (3 Fr). After 5 min for incubation, unbound peptides, stool and debris were rinsed away with warm tap water 3× prior to image collection. […] A ratio of the fluorescence and reflectance images was determined to correct for differences in distance and geometry over the image field-of-view (FOV) (Joshi et al., Endoscopy 48:A1-A13 (2016)). […]
The mean fluorescence intensity was used to calculate the target-to-background (T/B) ratios. Images were processed and analyzed using custom software in Matlab (Mathworks) (Joshi et al., Gastroenterology 152:1002-1013 e1009 (2017)). Matlab software was used to quantify the fluorescence intensity. The fluorescence intensity of regions of interest (ROI) was corrected by taking the ratio of fluorescence to reflectance, the fluorescence of interested region was taken as target (T), and adjacent mouse normal colon region with equal area was picked for use as background (B)^46. […]

[5] = confocal microscopy, 5 μM peptide
[6] = NOD/SCID mouse, topical administration

## CC(C)C[C@H](NC(=O)[C@H](CO)NC(=O)[C@H](Cc1c[nH]c2ccccc12)NC(=O)[C@H](CC(N)=O)NC(=O)[C@@H](NC(=O)[C@H](CCC(N)=O)NC(=O)[C@@H](N)CCC(N)=O)[C@@H](C)O)C(=O)NCC(=O)NCC(=O)NCC(=O)N[C@@H](CO)C(=O)N[C@@H](CCCCNC(=O)CCCCC[N+]1=C(/C=C/C=C/C=C2/N(C)c3ccc4ccccc4c3C2(C)C)C(C)(C)c2c1ccc1ccccc21)C(N)=O [QQT*-Cy5.5] (H-QQTNWSLGGGSK(X1)-NH2)
cMet [1]
  intensity of QQT*-Cy5.5 versus TLQ*-Cy5.5 for HT29 cells: 7.5 fold change
cMet [1]; [5]
  binding to surface of HT29 cells (cMet+): strong binding
  signal / binding to SW480 cells (cMet−): reduced signal
Mouse cMet-ECD
  binding to mouse cMet-ECD, Western blot band: supported specific binding
HT29 cells
  growth of HT29 cells: no effect on growth; also recorded: No change
cMet [2]
  Pearson's correlation coefficient ρ, co-localization with anti-cMet-AF488: 0.73
[3]
  NIR fluorescence image of flat lesion: presence of a flat lesion; also recorded: increased intensity
  NIR fluorescence image of polyp: strong intensity; also recorded: increased fluorescence intensity
[4]; [6]
  fluorescence signal from human SSA organoid in vivo: significantly higher signal; also recorded: intense signal; also recorded: strong intensity; also recorded: bound
  fluorescence signal from human adenoma organoid in vivo: strong intensity; also recorded: bound
  fluorescence signal from human normal organoid in vivo: minimal signal; also recorded: minimal intensity; also recorded: minimal binding
[4]; in vivo imaging
  fluorescence intensity QQT* versus TLQ* in human adenoma organoid xenografts: 3.2 fold
